The source of these data is publication PMC7819943, “Rice protein-binding microarrays: a tool to detect cis-acting elements near promoter regions in rice”.

By UniProt entry, the sequences of proteins in these tests, tags left out.
UniProt Q0JBA9, entry or part of it: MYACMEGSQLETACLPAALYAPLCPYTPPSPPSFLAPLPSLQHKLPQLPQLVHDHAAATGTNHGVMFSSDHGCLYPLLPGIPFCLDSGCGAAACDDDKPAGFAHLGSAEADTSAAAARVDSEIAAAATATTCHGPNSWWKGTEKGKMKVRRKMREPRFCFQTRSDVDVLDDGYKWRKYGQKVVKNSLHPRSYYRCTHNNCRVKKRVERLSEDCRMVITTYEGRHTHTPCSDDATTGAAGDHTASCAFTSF

Some of the results follow.

This experiment addresses OsWRKY34 (Oryza sativa, UniProt Q0JBA9 1-250). The experiment can be described thus: protein-binding microarray (RPBM); PBS, 2% BSA, 51.3 ng/ul salmon testes DNA, 50 uM zinc acetate, 200 nM TF, 25 C, 1 h; high values mean tight binding. The note with it: protein: recombinant; tags: N-terminal polyhistidine and DsRed monomer fusion (pET32a); label: CyDye5-dUTP incorporated in the synthesized complementary strand; 3' TTTTT single-stranded linker to array surface; dsDNA, one strand shown. The essentials:
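Using Ni–NTA, transcription factors fused N-terminally to polyhistidine and DsRed were purified after expression in E. coli BL21-CodonPlus. These were incubated at 200 nM with a blocked, double-stranded custom Agilent array for 1 h at 25 °C in a buffer containing 50 µM zinc acetate, and the array was washed. The binding signal is per-feature fluorescence intensity (arbitrary units) on an Axon 4000B scanner.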
As for “ACCTGTTCTTCTGGCGCCCCAACCACAGAGTTAAAAGGTGCGGAGTCACCTAGTGCAG”, the binding signal was 9260 fluorescence intensity (a.u.).

Consider “TATGTGTGTTCTAGTTGTTTGATGCTTTCTTAAGATTTAGCGGAGTCACCTAGTGCAG”, for which the binding signal was 10300 fluorescence intensity (a.u.).

Take “TCATTGCCCTGTCGCTGACCCTGCGCACCGCCGGCTTCCTCGGAGTCACCTAGTGCAG”: the binding signal was 11600 fluorescence intensity (a.u.).

As for “AGGCGAGCGAGGCGGGTGGGCGGGGAGCGAACCAACGACGCGGAGTCACCTAGTGCAG”, the binding signal is 8840 fluorescence intensity (a.u.).

As to “CTATTATCCTTTGCATGCCCCTCTCCAGCTGCTTCATCTGCGGAGTCACCTAGTGCAG”, the binding signal was 8110 fluorescence intensity (a.u.).

For “CGTGCGGGGATGCTTGGATGTGGGAAGGTGGGATAGGAGACGGAGTCACCTAGTGCAG”, the binding signal is 9820 fluorescence intensity (a.u.).

As for “CGTGCATCTTCCCGGCCTCTTTACTCTGGTGTTGTGAGACCGGAGTCACCTAGTGCAG”, the binding signal was 9270 fluorescence intensity (a.u.).

Consider “TGTGGGCCCAAAATTCGAATCACATATTTAACAGGGGAGGCGGAGTCACCTAGTGCAG”, for which the binding signal was 8670 fluorescence intensity (a.u.).

Consider “ATCTTTGGTACAATGTACTAGTCCTACCACTCCTACTTAACGGAGTCACCTAGTGCAG”, for which the binding signal is 8180 fluorescence intensity (a.u.).

As for “CAAACTTCTAACTTTTCCGTCGCATTGTTCTAATTTCAACCGGAGTCACCTAGTGCAG”, the binding signal is 9910 fluorescence intensity (a.u.).

Turning to “CACATTGCGTCTTGTAGTCTGTATTGTAGCTGACTATATACGGAGTCACCTAGTGCAG”, the binding signal is 8820 fluorescence intensity (a.u.).

For the sequence “TTTGCACGGTTTTTCATGGTTTTTCACGGTTACCGCGGTACGGAGTCACCTAGTGCAG”, the binding signal was 10100 fluorescence intensity (a.u.).

In the case of “TGCGGGATTACGGAATGGGGTTTGATGGGAGTTGCGTCATCGGAGTCACCTAGTGCAG”, the binding signal was 9240 fluorescence intensity (a.u.).

With “AGTATTCTCCTTTTAAATTGGCCCCGTTCCTTCCATTCTCCGGAGTCACCTAGTGCAG”, the binding signal was 11900 fluorescence intensity (a.u.).

“CTTTGCTCGAAACGATCGGTCAATCGGTATGTACTTCTCACGGAGTCACCTAGTGCAG”: the binding signal is 10800 fluorescence intensity (a.u.).

As for “TGTTGTTCGAATTTGACTTGTACACGCACATACCGTCTTTCGGAGTCACCTAGTGCAG”, the binding signal was 8830 fluorescence intensity (a.u.).

Regarding “ATCACCGTCCCCGCTGCCGCCACCCGCCACTGCCGCAGCGCGGAGTCACCTAGTGCAG”, the binding signal is 10800 fluorescence intensity (a.u.).

As for “TCTGTGTCTCTCTTGCCATATTCGTGTTGTTTTCCTCTATCGGAGTCACCTAGTGCAG”, the binding signal was 11400 fluorescence intensity (a.u.).

Consider “TCACCTGTCATACACACATGTATCTTGAGTTCATGTTGCACGGAGTCACCTAGTGCAG”, for which the binding signal is 8700 fluorescence intensity (a.u.).

With “GGGACGTGCTATATCTGGTTCTGCGGTTCAATGACGAATTCGGAGTCACCTAGTGCAG”, the binding signal is 10200 fluorescence intensity (a.u.).

“GCCCCATCCACCGCACCACACGTCTCTTTTTTTCGCGACTCGGAGTCACCTAGTGCAG”: the binding signal was 14600 fluorescence intensity (a.u.).

As for “GTTGGTATGGCTGCTTGTGAGACGTCTTGGACTAATCTATCGGAGTCACCTAGTGCAG”, the binding signal is 10500 fluorescence intensity (a.u.).

Regarding “TTCTTTGTCATGGTTTTCTCATTTTCCCCTATGAGTTTTTCGGAGTCACCTAGTGCAG”, the binding signal is 8690 fluorescence intensity (a.u.).

On to “GTTGTCGCACACATAATTATCATCCATCGATCCATCCATACGGAGTCACCTAGTGCAG”, for which the binding signal is 10900 fluorescence intensity (a.u.).

As for “GTGTGTGCGTCTGTCTCTCTCTCACAGGAAATCGTCGAAACGGAGTCACCTAGTGCAG”, the binding signal is 9790 fluorescence intensity (a.u.).

Turning to “CCATCTTCTTCTATCATAATCCGTTTCGTCGTCCTCCTGACGGAGTCACCTAGTGCAG”, the binding signal is 9490 fluorescence intensity (a.u.).

Turning to “CTTAGGATTGCCGGTTGCTACACACTTTTATTGGTACATTCGGAGTCACCTAGTGCAG”, the binding signal is 8810 fluorescence intensity (a.u.).

In the case of “TGTCCGGTGCGTTTTGATTGGGTCGTCTGCCCTCGGTTGACGGAGTCACCTAGTGCAG”, the binding signal is 13500 fluorescence intensity (a.u.).

Turning to “TTTTTTCCTCTGCTGCCAACAGTGATGCTTTTGTTCCACCCGGAGTCACCTAGTGCAG”, the binding signal was 8790 fluorescence intensity (a.u.).

For the sequence “ACAGCTTAAAATTTCCTCCTCCGCCCAAAAACCCTCTCGACGGAGTCACCTAGTGCAG”, the binding signal is 24300 fluorescence intensity (a.u.).

With “ATTCGAGATCAGCTTTCTCTTCTATTTTGCTACTAGTTCTCGGAGTCACCTAGTGCAG”, the binding signal was 13000 fluorescence intensity (a.u.).

Take “GGTCTAAGGTCTCTCTGACTGATTGGTTTTGCTTCGCTCTCGGAGTCACCTAGTGCAG”: the binding signal is 8730 fluorescence intensity (a.u.).

On to “ACTGAATTCTACTCCATTCTTTCTCTCTCCACTTGTTGCTCGGAGTCACCTAGTGCAG”, for which the binding signal was 11200 fluorescence intensity (a.u.).

In the case of “TCGGTGGGTTTGGTGGGAAATTGAGTTCGTGGACTTCATGCGGAGTCACCTAGTGCAG”, the binding signal is 8150 fluorescence intensity (a.u.).

With “TCCTCGCTATCTTCTTCTGCCACCACCGCCCATCCTCTCACGGAGTCACCTAGTGCAG”, the binding signal was 9500 fluorescence intensity (a.u.).

Take “TTCATGGAACATTCACGTGGATCATTCTCTCTCTCTCTCTCGGAGTCACCTAGTGCAG”: the binding signal is 8100 fluorescence intensity (a.u.).

For the sequence “GTTGGTCTTCATAGACATTTAATCCTGCATATTGACATTTCGGAGTCACCTAGTGCAG”, the binding signal was 8150 fluorescence intensity (a.u.).

Take “CGATTTGTTTGTTTCGCCCCTACCAGTTCTGCAGTACTGCCGGAGTCACCTAGTGCAG”: the binding signal was 8560 fluorescence intensity (a.u.).

Consider “TATATATATTTTGTTCCAATCACATTTCACATACCACAGTCGGAGTCACCTAGTGCAG”, for which the binding signal was 9520 fluorescence intensity (a.u.).

On to “TGACTTTCGAGATATTTTTGACAAATCGTTTTATATTTTTCGGAGTCACCTAGTGCAG”, for which the binding signal is 8400 fluorescence intensity (a.u.).

Regarding “CCCTTTTTTTTTGTGTGTGCGGTGCTTTATATACAGTTCACGGAGTCACCTAGTGCAG”, the binding signal was 9510 fluorescence intensity (a.u.).

With “CTAGCTGAAGACTTGTGCATGCAGTTTACACCTTTTATCTCGGAGTCACCTAGTGCAG”, the binding signal was 9280 fluorescence intensity (a.u.).
